Values from PubChem BioAssay AID1259308 (NCATS, 2017).
Purpose: 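Knock-downs that increase output of a recombinant reporter protein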 (primary screen). System: human HEK293 embryonic kidney cells stably expressing firefly luciferase (HEK-CMV-Luc2-Hygro). Reagents: single siRNA against human genes, 0.8 pmol siRNA per well. Duration: 72 h. Read-out: 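Luciferase light (ONE-Glo) measured on one replicate plate set and viability (CellTiter-Glo) on the other, scaled to a negative control siRNA, with robust z-scores and luciferase per cell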. Reading the numbers: total luciferase, z-score and total luciferase, % of control: higher = more reporter protein produced. Rule for the call: 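An siRNA counts as active if its total luciferase robust z-score exceeds 3; genes with two or more such siRNAs out of three were retested with fresh siRNAs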. Calls: active = raised luciferase; inactive = no rise.
This is a random part of about 59,000 reagents tested. About 1,510 of them (2.6%) count as active. 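Calls use total luciferase alone and ignore viability, so some active siRNAs may act by altering cell number.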 The numbers tell different reagents against one gene apart. Not all columns of the deposit are shown. Reagent sequences are not shown.

What is on record for WNT7A #1?
total luciferase, z-score: 2.16; total luciferase, % of control: 125; call: inactive

How did the screen score WNT7A #2?
total luciferase, z-score: 0.897; total luciferase, % of control: 99.7; call: inactive

Which result is listed for WNT7A #3?
total luciferase, z-score: -0.992; total luciferase, % of control: 62.2; call: inactive

How did the screen score ADGRL4 #1?
total luciferase, z-score: 0.132; total luciferase, % of control: 84.5; call: inactive

What is on record for ADGRL4 #2?
total luciferase, z-score: 0.473; total luciferase, % of control: 91.3; call: inactive

What is on record for ADGRL4 #3?
total luciferase, z-score: -0.22; total luciferase, % of control: 77.5; call: inactive

For IMPG1 #1, how do the results read?
total luciferase, z-score: 1.02; total luciferase, % of control: 102; call: inactive

Which result is listed for IMPG1 #2?
total luciferase, z-score: 0.0422; total luciferase, % of control: 82.7; call: inactive

How did the screen score IMPG1 #3?
total luciferase, z-score: 0.937; total luciferase, % of control: 101; call: inactive

For MAPK8IP1 #1, what was measured?
total luciferase, z-score: -1.21; total luciferase, % of control: 57.8; call: inactive

For MAPK8IP1 #2, what does the deposit list?
total luciferase, z-score: -0.735; total luciferase, % of control: 67.3; call: inactive

What is on record for MAPK8IP1 #3?
total luciferase, z-score: 0.693; total luciferase, % of control: 95.7; call: inactive

For TACO1 #1, what does the deposit list?
total luciferase, z-score: 0.0731; total luciferase, % of control: 83.3; call: inactive

What is on record for TACO1 #2?
total luciferase, z-score: -1.2; total luciferase, % of control: 58.1; call: inactive

What did the screen give for TACO1 #3?
total luciferase, z-score: 1.3; total luciferase, % of control: 108; call: inactive

Which result is listed for UBE2N #1?
total luciferase, z-score: 0.285; total luciferase, % of control: 87.6; call: inactive

What did the screen give for UBE2N #2?
total luciferase, z-score: 1.87; total luciferase, % of control: 119; call: inactive

What did the screen give for UBE2N #3?
total luciferase, z-score: 0.961; total luciferase, % of control: 101; call: inactive

What did the screen give for ANGPTL7 #1?
total luciferase, z-score: 0.717; total luciferase, % of control: 96.1; call: inactive

For ANGPTL7 #2, what was measured?
total luciferase, z-score: 3.96; total luciferase, % of control: 161; call: active

How did the screen score ANGPTL7 #3?
total luciferase, z-score: -0.338; total luciferase, % of control: 75.2; call: inactive

How did the screen score ZNF772 #1?
total luciferase, z-score: 3.23; total luciferase, % of control: 146; call: active

Which result is listed for ZNF772 #2?
total luciferase, z-score: 1.61; total luciferase, % of control: 114; call: inactive

With ZNF772 #3, what was measured?
total luciferase, z-score: 0.909; total luciferase, % of control: 100; call: inactive

With ARL6IP5 #1, what was measured?
total luciferase, z-score: 0.589; total luciferase, % of control: 93.6; call: inactive

For ARL6IP5 #2, what does the deposit list?
total luciferase, z-score: -0.0533; total luciferase, % of control: 80.8; call: inactive

Which result is listed for ARL6IP5 #3?
total luciferase, z-score: -1.48; total luciferase, % of control: 52.5; call: inactive

What did the screen give for APOL4 #1?
total luciferase, z-score: 1.23; total luciferase, % of control: 106; call: inactive

How did the screen score APOL4 #2?
total luciferase, z-score: -0.92; total luciferase, % of control: 63.6; call: inactive

For APOL4 #3, what does the deposit list?
total luciferase, z-score: -0.948; total luciferase, % of control: 63; call: inactive

For USP16 #1, what does the deposit list?
total luciferase, z-score: -0.387; total luciferase, % of control: 74.2; call: inactive

For USP16 #2, how do the results read?
total luciferase, z-score: 0.481; total luciferase, % of control: 91.4; call: inactive

How did the screen score USP16 #3?
total luciferase, z-score: -0.579; total luciferase, % of control: 70.4; call: inactive

Limited to “total luciferase, % of control”, for 5 of the entries above:
TACO1 #3: 108
UBE2N #1: 87.6
UBE2N #2: 119
UBE2N #3: 101
ANGPTL7 #1: 96.1
